By UniProt entry, the sequences of proteins in these tests, tags left out.
UniProt Q8N884, whole entry: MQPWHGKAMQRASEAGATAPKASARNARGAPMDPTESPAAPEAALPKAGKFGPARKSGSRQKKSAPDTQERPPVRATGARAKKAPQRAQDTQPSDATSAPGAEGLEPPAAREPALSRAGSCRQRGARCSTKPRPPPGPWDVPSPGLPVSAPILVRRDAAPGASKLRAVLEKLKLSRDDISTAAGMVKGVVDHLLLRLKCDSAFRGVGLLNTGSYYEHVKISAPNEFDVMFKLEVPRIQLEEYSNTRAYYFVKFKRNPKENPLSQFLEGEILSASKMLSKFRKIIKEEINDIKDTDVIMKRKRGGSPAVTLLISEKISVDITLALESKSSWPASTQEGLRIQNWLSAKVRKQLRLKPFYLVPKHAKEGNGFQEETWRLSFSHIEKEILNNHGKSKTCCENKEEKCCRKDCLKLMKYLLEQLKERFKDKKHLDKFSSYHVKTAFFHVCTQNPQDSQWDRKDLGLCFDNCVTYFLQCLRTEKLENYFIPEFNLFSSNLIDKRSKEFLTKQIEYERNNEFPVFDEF

According to PMC6529454, “Development of human cGAS-specific small-molecule inhibitors for repression of dsDNA-triggered interferon expression” (Nature Communications, 2019):

Molecular target: h-cGAS (Homo sapiens, UniProt Q8N884)
Test: RapidFire mass spectrometry (RF-MS) cGAS activity assay, h-cGAS
Conditions: read-out: IC50 h-cGAS

IC50	SMILES
> 39 nM and < 100 nM	O=C(CO)N1CCc2[nH]c3c(Cl)c(Br)ccc3c2C1 [G086]
> 39 nM and < 100 nM	O=C(CO)N1CCc2[nH]c3c(F)c(Br)ccc3c2C1 [G092]

Certain results were filed several times, with different values. Only these are listed. The source may hold further records. Results that share an entry differ for a reason that is not stated; some may be repeats, others may stem from another dose, organism or construct than stated.
